Taken from: PubChem BioAssay AID652243 (Drosophila RNAi Screening Center, 2013)
The deposit covers about 24,000 reagents; this is a random part of those that have a named target and a result. Over the whole deposit, 246 (1%) are marked active. 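Plates not normalised; calls are printed but the firefly/Renilla ratio behind them is not deposited; fold cut for lowering reported inconsistently.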 Raw values are not corrected between plates. Names joined by + are all predicted targets of the reagent. Not stated in the record: the amount of reagent.

- Assay: 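Fly regulators of androgen-dependent reporter output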 (primary screen)
- Cell system: Drosophila S2R+ cells
- Reagent: long dsRNA against Drosophila genes
- Time to read-out: 72 h (48 h, then 24 h hormone)
- Challenge: synthetic androgen R1881 at 10 nM for 24 h
- Read-out: 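Firefly light from an androgen-responsive reporter and Renilla control light per well, raw and unnormalised, for each of two replicates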
- Scale: firefly reporter light: higher = more light from androgen-responsive reporter; Renilla control light: higher = more constitutive control signal (cell number, transfection)
- Call rule: 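Across duplicate plates, a knock-down whose log firefly/Renilla ratio shifted a set fold down or up from the GFP/LacZ control mean was a hit; the downward cut appears as both 1.5 and 3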
- Meaning of the calls: active = hit: reporter lowered or raised; inactive = no hit

Target gene | amplicon | firefly reporter light, replicate 1 | firefly reporter light, replicate 2 | Renilla control light, replicate 1 | Renilla control light, replicate 2 | outcome
CG14671 | DRSC12257 | 60599 | 1.71e5 | 1.58e6 | 1.48e6 | inactive
CG14190 | DRSC19545 | 1.90e5 | 91103 | 7.34e5 | 2.80e5 | inactive
CG14190 | DRSC27410 | 2.36e5 | 1.98e5 | 6.42e5 | 5.53e5 | inactive
CtsF | DRSC12056 | 92820 | 93136 | 2.09e5 | 2.01e5 | inactive
CtsF | DRSC12195 | 19661 | 22160 | 2.64e5 | 2.65e5 | inactive
CtsF | DRSC12196 | 87441 | 1.00e5 | 1.69e6 | 1.79e6 | inactive
CG15651 | DRSC04242 | 2.00e5 | 1.87e5 | 1.40e6 | 1.51e6 | inactive
COX6B | DRSC19590 | 52229 | 54870 | 3.76e5 | 4.53e5 | inactive
COX6B | DRSC27409 | 1.89e5 | 1.79e5 | 4.53e5 | 4.84e5 | inactive
Gr5a | DRSC18085 | 3.91e5 | 3.51e5 | 2.33e6 | 2.06e6 | inactive
Eglp2 | DRSC04294 | 1.14e6 | 5.31e5 | 1.48e6 | 1.00e6 | inactive
Ttc30 | DRSC02818 | 5.78e5 | 8.03e5 | 1.67e6 | 1.58e6 | inactive
Ttc30 | DRSC25846 | 2.62e5 | 2.88e5 | 8.29e5 | 7.41e5 | inactive
Aos1 | DRSC14113 | 65327 | 1.15e5 | 1.28e6 | 1.54e6 | inactive
Aos1 | DRSC29634 | 5.01e5 | 5.31e5 | 8.46e5 | 8.46e5 | inactive
puf | DRSC23167 | 1.30e6 | 1.53e6 | 7.50e5 | 6.25e5 | inactive
eater | DRSC15969 | 5.46e5 | 6.08e5 | 2.51e6 | 2.23e6 | inactive
eater | DRSC22254 | 9.09e5 | 1.19e6 | 1.19e6 | 1.23e6 | inactive
eater | DRSC29945 | 6.58e5 | 5.29e5 | 9.82e5 | 1.06e6 | inactive

3 entries already listed, ordered by “Renilla control light, replicate 1”, ascending.
Target gene | amplicon | firefly reporter light, replicate 1 | firefly reporter light, replicate 2 | Renilla control light, replicate 1 | Renilla control light, replicate 2 | outcome
eater | DRSC29945 | 6.58e5 | 5.29e5 | 9.82e5 | 1.06e6 | inactive
eater | DRSC22254 | 9.09e5 | 1.19e6 | 1.19e6 | 1.23e6 | inactive
eater | DRSC15969 | 5.46e5 | 6.08e5 | 2.51e6 | 2.23e6 | inactive

The results go on:
Target gene | amplicon | firefly reporter light, replicate 1 | firefly reporter light, replicate 2 | Renilla control light, replicate 1 | Renilla control light, replicate 2 | outcome
CG9368 | DRSC11067 | 36015 | 51833 | 5.96e5 | 4.74e5 | inactive
CG9368 | DRSC24280 | 1.17e6 | 9.88e5 | 1.40e6 | 1.10e6 | inactive
Rlip | DRSC16828 | 2.38e5 | 2.76e5 | 2.59e6 | 3.07e6 | inactive
CG10510 | DRSC11614 | 23811 | 51524 | 2.97e5 | 3.83e5 | inactive
CG11975 | DRSC14452 | 63774 | 60695 | 3.46e5 | 3.24e5 | inactive
Setd3 | DRSC17840 | 2.52e5 | 4.05e5 | 3.04e6 | 3.57e6 | inactive
Setd3 | DRSC18269 | 2.50e5 | 2.87e5 | 1.97e6 | 1.62e6 | inactive
FASN2 | DRSC00167 | 3.40e5 | 2.93e5 | 7.71e5 | 6.27e5 | inactive
FASN2 | DRSC00610 | 8.98e5 | 7.76e5 | 2.18e6 | 1.51e6 | inactive
CG31343 | DRSC15887 | 61266 | 79478 | 9.73e5 | 1.05e6 | inactive
Ir7f | DRSC18012 | 2.36e5 | 3.73e5 | 2.45e6 | 3.24e6 | inactive
Eb1 | DRSC05016 | 4.68e5 | 3.61e5 | 1.96e6 | 1.56e6 | inactive
CG11927 | DRSC00337 | 7.93e5 | 1.07e6 | 1.49e6 | 1.68e6 | inactive
CG12491 + CG34105 | DRSC04008 | 1.49e5 | 2.27e5 | 6.69e5 | 7.21e5 | inactive
CG12491 + CG34105 | DRSC04124 | 4.03e5 | 4.37e5 | 2.04e6 | 2.57e6 | inactive
CG12491 + CG34105 | DRSC26465 | 2.98e5 | 2.39e5 | 7.01e5 | 6.28e5 | inactive
CR31824 | DRSC01517 | 1.47e5 | 1.65e5 | 3.16e5 | 5.05e5 | inactive
CR31824 | DRSC29841 | 5.43e5 | 3.69e5 | 1.23e6 | 1.34e6 | inactive
CG1572 | DRSC19686 | 1.56e5 | 2.31e5 | 1.11e6 | 1.25e6 | inactive
tw | DRSC18537 | 54780 | 20431 | 2.18e5 | 2.59e5 | inactive
Frmd5 | DRSC02802 | 90049 | 90328 | 1.31e6 | 1.10e6 | active
